Experimental data as given in publication PMC10352345.
No constants are given. Whether binding was seen depends on the method and setting. For some assays here: Binding seen in cells or lysates may run through a third protein. Some results given as binding are weak or reduced against the parent protein; the word gives no strength.

Assays:
[1] = molecular target: T1, KIM1, endogenous in mouse kidney (mouse (endogenous in kidney)) (UniProt Q5QNS5); experiment: co-IP; kidneys of mice at Day 3 after cisplatin injury, with or without peptide P2 treatment; IP with anti-KIM1 or IgG; DR5 detected with anti-DR5; pooled samples from 4 mice per lane
T1 sequence: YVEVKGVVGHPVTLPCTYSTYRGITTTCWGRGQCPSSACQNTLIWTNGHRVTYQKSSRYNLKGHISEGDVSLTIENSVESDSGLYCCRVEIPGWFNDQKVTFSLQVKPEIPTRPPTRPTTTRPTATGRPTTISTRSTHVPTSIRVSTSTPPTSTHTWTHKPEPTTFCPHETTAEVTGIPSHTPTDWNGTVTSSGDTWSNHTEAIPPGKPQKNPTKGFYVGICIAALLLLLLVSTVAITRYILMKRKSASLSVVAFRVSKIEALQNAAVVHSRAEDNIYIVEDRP

[2] = molecular target: DR5, endogenous in mouse kidney (mouse (endogenous in kidney)) (UniProt Q9QZM4); experiment: native gel or EMSA; cells or renal tissues lysed in NETN buffer (20 mM Tris-HCl pH 8.0, 100 mM NaCl, 0.5 mM EDTA, 0.5% NP-40); 12% native PAGE without SDS/DTT/β-mercaptoethanol; blot with anti-DR5; cisplatin or bIRI, KIM1 overexpression or knockout, nystatin

B1: DR5, endogenous in mouse kidney (receptor, UniProt Q9QZM4 53-381)
chain: NPAHNRPAGLQRPEESPSRGPCLAGQYLSEGNCKPCREGIDYTSHSNHSLDSCILCTVCKEDKVVETRCNITTNTVCRCKPGTFEDKDSPEICQSCSNCTDGEEELTSCTPRENRKCVSKTAWASWHKLGLWIGLLVPVVLLIGALLVWKTGAWRQWLLCIKRGCERDPESANSVHSSLLDRQTSSTTNDSNHNTEPGKTQKTGKKLLVPVNGNDSADDLKFIFEYCSDIVPFDSWNRLMRQLGLTDNQIQMVKAETLVTREALYQMLLKWRHQTGRSASINHLLDALEAVEERDAMEKIEDYAVKSGRFTYQNAAAQPETGPGGSQCV
[1]
  binding: binds
[2]
  binding: binds
